According to PMC10291802:
No constants are given. Whether binding was seen depends on the method and setting. In cells and extracts the contact can be indirect. Some binding calls cover weakened binding; strength is not graded here.

Chains of the proteins cited; added tags and fusions are not shown. Residues count along the entry.
UniProt P17936, residues 28-291: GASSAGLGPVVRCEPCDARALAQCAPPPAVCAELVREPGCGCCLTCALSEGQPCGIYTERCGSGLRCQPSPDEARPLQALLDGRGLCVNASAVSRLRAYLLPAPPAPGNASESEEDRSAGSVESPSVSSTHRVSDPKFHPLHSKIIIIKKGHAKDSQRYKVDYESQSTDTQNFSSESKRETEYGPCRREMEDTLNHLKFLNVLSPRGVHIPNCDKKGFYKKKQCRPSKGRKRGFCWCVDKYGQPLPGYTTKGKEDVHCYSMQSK

Target: Insulin-like growth factor binding protein 3 (not stated (human or mouse cDNA cloned)) (UniProt P17936)
Experiment: co-IP; total protein from IGFBP3-over hDPSCs 72 h post-transfection; lysate incubated with mouse anti-IGFBP3 (2 ug, sc-374365) or mouse IgG at 4 °C overnight, Protein A/G magnetic beads 2 h at 4 °C; blotted with rabbit anti-IGFBP3 and anti-DKK1

B1: Dickkopf-related protein 1 (protein, UniProt O94907 32-266)
chain: TLNSVLNSNAIKNLPPPLGGAAGHPGSAVSAAPGILYPGGNKYQTIDNYQPYPCAEDEECGTDEYCASPTRGGDAGVQICLACRKRRKRCMRHAMCCPGNYCKNGICVSSDQNHFRGEIEETITESFGNDHSTLDGYSRRTTLSSKMYHTKGQEGSVCLRSSDCASGLCCARHFWSKICKPVLKEGQVCTKHRRKGSHGLEIFQRCYCGEGLSCRIQKDHHQASNSSRLHTCQRH
  binding: binds
